Measurements reported in PubChem BioAssay AID1224826 (NIAID, 2016).

- Test: 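Knock-downs that raise or lower Tnf reporter signal after endotoxin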 (primary screen)
- Cell system: RAW264.7 G9 macrophages from mouse bearing reporters for p65 (GFP) and the Tnf promoter (mCherry)
- Reagents: siRNA pool against mouse genes, 100 nM
- Time to read-out: 16 h of LPS stimulation, after 2 days of siRNA transfection
- Treatment: bacterial lipopolysaccharide (Salmonella minnesota R595), 10 ng/ml
- Read-out: 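Imaged Tnf reporter mCherry in nuclei, minus background, normalised per plate to the median and expressed as robust z-scores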
- Direction: Tnf reporter robust z-score: higher = stronger Tnf promoter reporter signal after LPS; Tnf reporter intensity: higher = stronger Tnf promoter reporter signal
- Hit rule: 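a well counts as active at a score of -1.3 or below (Tlr4 knock-down control median) or above 3 (raised signal); controls and wells holding fewer than 50 cells are excluded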
- Calls: active = Tnf reporter clearly lowered or raised; inactive = no clear change in Tnf reporter
In all, the deposit lists about 17,000 reagents; this is a part drawn at random. About 1,110 of all reagents (6.6%) count as active. 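Active means lowered or raised reporter signal; replicate intensities are raw and not normalised per plate.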 A number with no mark means an inactive call. Reagents against one gene are numbered here.

Target gene	reagent no.	Tnf reporter robust z-score	fewer than 50 cells in well	Tnf reporter intensity, replicate 1	Tnf reporter intensity, replicate 2
Rnf152	1	0.93	enough cells in well	185	244
Actl6b	1	1.95	enough cells in well	331	221
Tuba8	1	0.16	enough cells in well	211	278
Gramd2b	1	0.56	enough cells in well	225	213
Bnip3l	1	0.05	enough cells in well	148	164
Ccdc28a	1	-0.05	enough cells in well	216	80
Arl16	1	-1.03	enough cells in well	168	44
Eif3d	1	-1.01	enough cells in well	157	145
Arl8b	1	0.15	enough cells in well	172	180
Akt2	1	-0.63	enough cells in well	155	124
Clic6	1	-0.08	enough cells in well	126	218
Sh3rf1	1	0.09	enough cells in well	126	80.8
Otc	1	-0.96	enough cells in well	176	113
Bltp1	1	0.73	enough cells in well	312	138
Bltp1	2	0.86	enough cells in well	277	82.7
Gatad1	1	-1.46 (active)	enough cells in well	102	36.9
Zfp934	1	1.06	enough cells in well	254	246
Anxa3	1	-0.46	enough cells in well	145	140
Usp16	1	-0.27	enough cells in well	189	233
Gpr179	1	-0.32	enough cells in well	153	136
Pld3	1	0.2	enough cells in well	157	120
Lrrcc1	1	-1.32 (active)	enough cells in well	123	37.4
Pla2g2c	1	-1.29	enough cells in well	89.3	57.4
Kif18a	1	1	enough cells in well	327	196
Arpc5l	1	0.96	enough cells in well	236	209
Paip2	1	-1.24	enough cells in well	89.3	74.1
Nupr1	1	2.4	enough cells in well	355	259
Traf4	1	0.29	enough cells in well	285	213
Epn2	1	-0.64	enough cells in well	213	94.9
Krtap19-2	1	0.12	enough cells in well	175	171
Rasgef1b	1	1.16	enough cells in well	217	143
Bcorl1	1	1.05	enough cells in well	262	301
Fam98c	1	1.05	enough cells in well	288	123
Htr3a	1	0.36	enough cells in well	255	306
Arid4a	1		fewer than 50 cells per well; well left out of calls	360	118
2310057J18Rik	1	2.58	enough cells in well	193	118
Serpinb6c	1	0.2	enough cells in well	85.8	132
Efhd2	1		fewer than 50 cells per well; well left out of calls	96.4	78.9
Triml1	1	0.55	enough cells in well	142	178
Zfp40	1	2.08	enough cells in well	198	228
